Measured values as given in patent publication US8207177B2, “Inhibitors of E1 activating enzymes” (Millennium Pharmaceuticals, Inc., priority 2006, dated 2012).
Some entries share one result that the patent states for a list of compounds.

Target: T1, recombinant human NAE enzyme (Homo sapiens, UniProt Q8TBC4)
T1 construct: His (N); made in house; host or cells: Sf9 insect cells (baculovirus, Bac-to-Bac), purified on Ni-NTA
T1 sequence (Q8TBC4 1-463): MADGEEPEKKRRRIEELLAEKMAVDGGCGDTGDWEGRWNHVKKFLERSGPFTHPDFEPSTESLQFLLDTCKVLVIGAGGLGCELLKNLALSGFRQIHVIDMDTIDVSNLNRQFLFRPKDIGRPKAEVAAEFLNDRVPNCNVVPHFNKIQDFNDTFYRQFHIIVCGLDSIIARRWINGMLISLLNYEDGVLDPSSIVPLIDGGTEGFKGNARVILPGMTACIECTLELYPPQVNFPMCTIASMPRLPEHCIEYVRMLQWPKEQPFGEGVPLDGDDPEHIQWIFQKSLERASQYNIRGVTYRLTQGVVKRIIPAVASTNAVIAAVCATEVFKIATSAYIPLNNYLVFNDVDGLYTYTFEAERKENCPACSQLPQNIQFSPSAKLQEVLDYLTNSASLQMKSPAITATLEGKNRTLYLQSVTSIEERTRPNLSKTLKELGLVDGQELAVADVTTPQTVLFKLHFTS
T1 sequence (Q13564 1-534 partner): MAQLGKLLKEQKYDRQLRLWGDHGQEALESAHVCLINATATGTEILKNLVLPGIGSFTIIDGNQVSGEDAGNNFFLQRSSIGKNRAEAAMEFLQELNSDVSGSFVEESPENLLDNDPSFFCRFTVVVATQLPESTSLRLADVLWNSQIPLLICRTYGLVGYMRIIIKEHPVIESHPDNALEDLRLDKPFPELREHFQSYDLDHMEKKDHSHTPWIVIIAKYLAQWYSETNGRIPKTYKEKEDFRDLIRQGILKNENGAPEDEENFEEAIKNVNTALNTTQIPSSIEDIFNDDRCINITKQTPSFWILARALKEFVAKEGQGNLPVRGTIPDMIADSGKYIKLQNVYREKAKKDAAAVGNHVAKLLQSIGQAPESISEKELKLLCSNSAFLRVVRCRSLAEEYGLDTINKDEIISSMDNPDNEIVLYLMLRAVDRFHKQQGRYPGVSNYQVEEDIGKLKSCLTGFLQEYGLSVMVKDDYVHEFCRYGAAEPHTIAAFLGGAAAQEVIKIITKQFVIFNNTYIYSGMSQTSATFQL
Test: Nedd8-Activating Enzyme (NAE) HTRF Assay
Format: biochemical
Settings: threshold statement: less than or equal to 10 μM; 20 μM ATP, 90 minutes at 24° C.
Method: Following manufacturer instructions, baculoviruses were generated with the Bac-to-Bac Expression System (Invitrogen) for the following proteins: untagged NAEα (APPBP1; NP_003896.1), N-terminally His-tagged NAEβ (UBE1C; NP_003959.3), untagged SAEα (SAE1; NP_005491.1), N-terminally His-tagged SAEβ (UBA2; NP_005490.1), N-terminally His-tagged murine UAE (UBE1X; NP_033483). NAEα/His-NAEβ and SAEα/His-SAEβ complexes were generated by co-infection of Sf9 cells, which were harvested after 48 hours. His-mUAE was generated by single infection of Sf9 cells and harvested after 72 hours. Expressed proteins were purified by affinity chromatography (Ni—NTA agarose, Qiagen) using standard buffers. Ubc12 (UBE2M; NP_003960.1), Ubc9 (UBE2I; NP_003336.1), Ubc2 (UBE2A; NP_003327.2) were subcloned into pGEX (Pharmacia) and expressed as N-terminally GST tagged fusion proteins in E. coli. Expressed proteins were purified by conventional affinity chromatography using standard buffers. Nedd8 (NP_006147), Sumo-1 (NP_003343) and Ubiquitin (with optimized codons) were subcloned into pFLAG-2 (Sigma) and expressed as N-terminally Flag tagged fusion proteins in E. coli. Expressed proteins were purified by conventional chromatography using standard buffers. Nedd8-Activating Enzyme (NAE) HTRF Assay. The NAE enzymatic reaction totaled 50 μL and contained 50 mM HEPES (pH 7.5), 0.05% BSA, 5 mM MgCl2, 20 μM ATP, 250 μM GSH, 0.01 μM Ubc12-GST, 0.075 μM Nedd8-Flag and 0.28 nM recombinant human NAE enzyme. The enzymatic reaction mixture, with and without compound inhibitor, was incubated at 24° C. for 90 minutes in a 384-well plate before termination with 25 μL of Stop/Detection buffer (0.1M HEPES pH 7.5, 0.05% Tween20, 20 mM EDTA, 410 mM KF, 0.53 nM Europium-Cryptate labeled monoclonal anti-FLAG M2 antibody (CisBio International) and 8.125 μg/mL PHYCOLINK goat anti-GST allophycocyanin (XL-APC) antibody (Prozyme)). After incubation for 3 hours at 24° C., quantification of the FRET was performed on the Analyst™ HT 96.384 (Molecular Devices).

IC50, ≤ 10 µM:
NS(=O)(=O)OC[C@@H]1C[C@@H](n2ccc3c(NCc4ccc(Cl)cc4)ncnc32)[C@H](O)[C@@H]1O [Compound I-22, ((1S,2R,3S,4R)-4-{4-[(4-chlorobenzyl)amino]-7H-pyrrolo[2,3-d]pyrimidin-7-yl)-2,3-dihydroxycyclopentyl)methyl sulfamate]
NS(=O)(=O)OC[C@@H]1C[C@@H](n2cnc3c(NCc4ccc(Cl)cc4)ncnc32)C[C@@H]1O [Compound I-23, ((1S,2S,4R)-4-{6-[(4-chlorobenzyl)amino]-9H-purin-9-yl}-2-hydroxycyclopentyl)methyl sulfamate]
NS(=O)(=O)OC[C@@H]1C[C@@H](n2ccc3c(NCc4ccc(Cl)c(Cl)c4)ncnc32)C[C@@H]1O [Compound I-24, ((1S,2S,4R)-4-{4-[(3,4-dichlorobenzyl)amino]-7H-pyrrolo[2,3-d]pyrimidin-7-yl}-2-hydroxycyclopentyl)methyl sulfamate]
NS(=O)(=O)OC[C@@H]1C[C@@H](n2ccc3c(NCC4CC4)ncnc32)C[C@@H]1O [Compound I-25, ((1S,2S,4R)-4-{4-[(cyclopropylmethyl)amino]-7H-pyrrolo[2,3-d]pyrimidin-7-yl}-2-hydroxycyclopentyl)methyl sulfamate]
NS(=O)(=O)OC[C@@H]1C[C@@H](n2ccc3c(NCc4ccc5c(c4)OCO5)ncnc32)C[C@@H]1O [Compound I-26, ((1S,2S,4R)-4-{4-[(1,3-benzodioxol-5-ylmethyl)amino]-7H-pyrrolo[2,3-d]-pyrimidin-7-yl}-2-hydroxycyclopentyl)methyl sulfamate]
NS(=O)(=O)OC[C@@H]1C[C@@H](n2ccc3c(N[C@H]4CCc5cc(Cl)ccc54)ncnc32)C[C@@H]1O [Compound I-27, [(1S,2S,4R)-4-(4-}[(1S)-5-chloro-2,3-dihydro-1H-inden-1-yl]amino}-7H-pyrrolo-[2,3-d]pyrimidin-7-yl)-2-hydroxycyclopentyl]methyl sulfamate]
NS(=O)(=O)OC[C@@H]1C[C@@H](n2ccc3c(CCc4ccccc4)ncnc32)C[C@@H]1O [Compound I-28, {(1S,2S,4R)-2-hydroxy-4-[4-(2-phenylethyl)-7H-pyrrolo[2,3-d]pyrimidin-7-yl]-cyclopentyl}methyl sulfamate]
NS(=O)(=O)OC[C@@H]1C[C@@H](n2ccc3c(NCC4CCCCC4)ncnc32)C[C@@H]1O [Compound I-29, ((1S,2S,4R)-4-{4-[(cyclohexylmethyl)amino]-7H-pyrrolo[2,3-d]pyrimidin-7-yl)-2-hydroxycyclopentyl)methyl sulfamate]
C[C@]1(O)C[C@H](n2ccc3c(N[C@H]4CCc5ccccc54)ncnc32)C[C@H]1COS(N)(=O)=O [Compound I-30, ((1S,2S,4R)-4-{4-[(1S)-2,3-dihydro-1H-inden-1-ylamino]-7H-pyrrolo[2,3-d]-pyrimidin-7-yl}-2-hydroxy-2-methylcyclopentyl)methyl sulfamate]
NS(=O)(=O)OC[C@@H]1C[C@@H](n2cc(F)c3c(NCc4ccccc4)ncnc32)C[C@@H]1O [Compound I-31, {(1S,2S,4R)-4-[4-(benzylamino)-5-fluoro-7H-pyrrolo[2,3-d]pyrimidin-7-yl]-2-hydroxycyclopentyl}methyl sulfamate]
NS(=O)(=O)OC[C@@H]1C[C@@H](n2ccc3c(N[C@H]4CCc5cc(Br)ccc54)ncnc32)C[C@@H]1O [Compound I-33, [(1S,2S,4R)-4-(4-{[(1S)-5-bromo-2,3-dihydro-1H-inden-1-yl]amino}-7H-pyrrolo-[2,3-d]pyrimidin-7-yl)-2-hydroxycyclopentyl]methyl sulfamate]
NS(=O)(=O)OC[C@@H]1C[C@@H](n2ccc3c(OCc4ccc(Cl)cc4)ncnc32)C[C@@H]1O [Compound I-34, ((1S,2S,4R)-4-{4-[(4-chlorobenzyl)oxy]-7H-pyrrolo[2,3-d]pyrimidin-7-yl}-2-hydroxycyclopentyl)methyl sulfamate]
NS(=O)(=O)OC[C@@H]1C[C@@H](n2ccc3c(N[C@H]4CCc5cc(F)ccc54)ncnc32)C[C@@H]1O [Compound I-36, [(1S,2S,4R)-4-(4-{[(1S)-5-fluoro-2,3-dihydro-1H-inden-1-yl]amino}-7H-pyrrolo-[2,3-d]pyrimidin-7-yl)-2-hydroxycyclopentyl]methyl sulfamate]
NS(=O)(=O)OC[C@@H]1C[C@@H](n2ccc3c(N[C@H]4CCCc5ccccc54)ncnc32)C[C@@H]1O [Compound I-37, ((1S,2S,4R)-2-hydroxy-4-{4-[(1S)-1,2,3,4-tetrahydronaphthalen-1-ylamino]-7H-pyrrolo[2,3-d]pyrimidin-7-yl}cyclopentyl)methyl sulfamate]
NS(=O)(=O)OC[C@@H]1C[C@@H](n2ccc3c(NCc4cccc5ccccc45)ncnc32)C[C@@H]1O [Compound I-38, ((1S,2S,4R)-2-hydroxy-4-{4-[(1-naphthylmethyl)amino]-7H-pyrrolo[2,3-d]-pyrimidin-7-yl}cyclopentyl)methyl sulfamate]
NS(=O)(=O)OC[C@@H]1C[C@@H](n2ccc3c(Nc4ccccc4)ncnc32)C[C@@H]1O [Compound I-39, [(1S,2S,4R)-4-(4-anilino-7H-pyrrolo[2,3-d]pyrimidin-7-yl)-2-hydroxycyclopentyl]methyl sulfamate]
CNc1ncnc2c1ccn2[C@@H]1C[C@@H](COS(N)(=O)=O)[C@@H](O)C1 [Compound I-40, {(1S,2S,4R)-2-hydroxy-4-[4-(methylamino)-7H-pyrrolo[2,3-d]pyrimidin-7-yl]-cyclopentyl}methyl sulfamate]
Cc1cc(CNc2ncnc3c2ccn3[C@@H]2C[C@@H](COS(N)(=O)=O)[C@@H](O)C2)no1 [Compound I-41, [(1S,2S,4R)-2-hydroxy-4-(4-{[(5-methylisoxazol-3-yl)methyl]amino}-7H-pyrrolo-[2,3-d]pyrimidin-7-yl)cyclopentyl]methyl sulfamate]
NS(=O)(=O)OC[C@@H]1C[C@@H](n2ccc3c(NCc4ccc(Cl)cc4C(F)(F)F)ncnc32)C[C@@H]1O [Compound I-42, [(1S,2S,4R)-4-(4-{[4-chloro-2-(trifluoromethyl)benzyl]amino}-7H-pyrrolo[2,3-d]-pyrimidin-7-yl)-2-hydroxycyclopentyl]methyl sulfamate]
COc1ccccc1CNc1ncnc2c1ccn2[C@@H]1C[C@@H](COS(N)(=O)=O)[C@@H](O)C1 [Compound I-43, ((1S,2S,4R)-2-hydroxy-4-{4-[(2-methoxybenzyl)amino]-7H-pyrrolo[2,3-d]-pyrimidin-7-yl)cyclopentyl)methyl sulfamate]
C#Cc1cn([C@@H]2C[C@@H](COS(N)(=O)=O)[C@@H](O)C2)c2ncnc(C)c12 [Compound I-44, [(1S,2S,4R)-4-(5-ethynyl-4-methyl-7H-pyrrolo[2,3-d]pyrimidin-7-yl)-2-hydroxycyclopentyl]methyl sulfamate]
